# Results from one PubChem assay

The results are deposited in PubChem (AID912; NCATS, 2007).

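A cell-based FRET test of anthrax lethal toxin entry, tracked through the 460 nm emission signal; the cell line is not named here.
Each compound was tested as a concentration series from about 0.0005 to 40 µM.
The number is the fitted AC50 of the 460 nm signal alone; lower values mean a more potent effect. A falling signal goes with compounds filed as inhibitors or cytotoxic, a rising one with activators or fluorescent compounds (inferred from the filed classes).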

Values are in µM.
Common to all entries: measured here: 460 nm channel.
Part of the compounds only, not a random draw; the main read-out is not listed here.
A potency from a partial, single-point or poor curve is only a rough figure.
The first word of each remark tells which way the curve ran; it can be opposite to the aim of the assay.

SMILES	AC50 (µM)	curve
Cc1ccccc1S(=O)(=O)Nc1nc2ccccc2nc1N1CCOCC1	0.03162	rising, full curve
Cc1ccc(S(=O)(=O)c2nc(-c3ccccc3)oc2NCc2cccnc2)cc1	12.59	rising, partial curve
Cc1nnc(NCc2ccncc2)c2ccccc12	1.995	falling, full curve, poor fit
COc1ccc(CCn2c(C)cc3c(c2=O)C(c2ccncc2)C(C#N)=C(N)O3)cc1OC (centres undefined)	0.01995	rising, full curve, poor fit
COc1ccccc1N1CCN(c2ncnc3nc[nH]c23)CC1	15.85	falling, partial curve
CCC(NC(=O)NCc1cccnc1)(C(F)(F)F)C(F)(F)F	0.3162	falling, full curve
COc1cccc(Cn2c(=O)c(-c3cccs3)nc3cnc(N4CCNCC4)nc32)c1	0.3981	rising, full curve
NS(=O)(=O)c1cccc2c1c([N+](=O)[O-])cc1nc(O)c(O)nc12	12.59	falling, partial curve, poor fit
Cc1ccc(NC(=[OH+])c2cc3ccccc3cc2O)c(C)c1.Cc1ccc(NC(=[OH+])c2cc3ccccc3cc2O)c(C)c1.[Ni]	3.981	falling, partial curve
CCCCC1CCC(c2nc(-c3cccnc3)no2)CC1 (centres undefined)	31.62	falling, single point
O=C(O)c1cccnc1SCC(=O)N1CCCCCC1	0.1	falling, full curve, poor fit
CCOCC(=O)NCc1ccc2c(c1)OCO2	5.012	rising, partial curve
CCOC(=O)C1CCCN(C(=O)Nc2cccc(Cl)c2)C1 (centres undefined)	25.12	rising, single point
O=C(Nc1cccc(F)c1)N1CCCC2(CCN(C(=O)c3cc(C(F)(F)F)cc(C(F)(F)F)c3)CC2)C1	12.59	rising, single point
COc1cc(NC(=O)c2ccc(Cl)cc2)c(OC)cc1NC(=O)CN1CCOCC1	25.12	falling, single point
CC(C)(C)n1nnnc1C(c1cccs1)N(Cc1ccccc1)Cc1ccco1 (centres undefined)	0.1259	falling, partial curve, poor fit
COc1cc(OC)c(C(=O)Oc2ccc3c(c2)OCO3)cc1OC	5.012	rising, single point
c1ccc2cc(C3=NCCN3)ncc2c1	1	falling, full curve
c1ccc(-c2nc3ccccc3s2)nc1	3.162	rising, single point
O=C1OC(c2ccc(O)cc2)(c2ccc(O)cc2)c2ccccc21	1.585	falling, full curve, poor fit
COc1ccc(N2CCC(CNC(=O)Nc3ccc(C)c(C)c3)C2)cc1 (centres undefined)	5.012	falling, partial curve
N#CCCn1c(=O)c(-c2ccc(Cl)cc2)nc2cnc(N3CCOCC3)nc21	10	rising, partial curve
COC(=O)CCn1nnc(-c2ccc(C)cc2)n1	0.07943	falling, full curve, poor fit
Fc1ccc(-n2c(-c3ccco3)nc3nc4ccccc4nc32)cc1	19.95	rising, single point
CC(C)COc1ccc(-c2nnc(-c3ccco3)o2)cc1	3.162	falling, single point
O=S(=O)(c1ccc2c(c1)C(=NO)c1cc(S(=O)(=O)N3CCCCC3)ccc1-2)N1CCCCC1	3.981	rising, partial curve
Cc1cc(C)c2c(CC(=O)Nc3ccc(Cl)cn3)coc2c1	31.62	falling, single point
CCOC(=O)c1[nH]c2cc(OC)c(OC)cc2c1NC(=O)CN1CCN(C)CC1	5.012	rising, single point
O=C(CCSc1ccccc1)Nc1ccc(S(=O)(=O)N2CCOCC2)cc1	1.259	falling, partial curve
CCOC(=O)c1c(NC(=O)c2ccc(-n3cnnn3)cc2)sc2c1CCCC2	5.012	falling, single point
NC[C@@H]1O[C@H](C23CC4CC(CC(C4)C2)C3)Cc2c1ccc(O)c2O	15.85	falling, partial curve, poor fit
COc1ccc2[nH]cc(CCNc3ccnc(-c4ccc5c(c4)OCO5)n3)c2c1	12.59	falling, single point
CCCCn1c2nc3ccccc3nc2c2c(=O)n(CCC(C)C)cnc21	0.1585	rising, full curve, poor fit
O=C(Nc1ccc(N2CCOCC2)c(Cl)c1)c1ncn[nH]1	2.512	falling, partial curve, poor fit
CC(C)(C)NC(=O)c1ccc2nccnc2c1	5.012	rising, single point
O=C(CC12CC3CC(CC(C3)C1)C2)NCCN1CCOCC1	31.62	falling, single point
O=C(O)[C@@H]1[C@@H](C(=O)NCc2cccnc2)[C@@H]2C=C[C@@H]1O2	5.012	rising, single point
O=C(Oc1ccc(N2C(=O)CCC2=O)cc1)c1ccco1	5.012	rising, partial curve
CCc1ccc2oc(-c3cccc(NC(=O)c4cccnc4)c3)nc2c1	5.012	falling, single point
COc1ccccc1Cc1nc(-c2ccc(Br)o2)no1	10	falling, partial curve
CCc1cc2c(nc1CC)CCN(CC/C(C)=N/OC[C@H]1O[C@H](c3ccccc3)C=C[C@@H]1Oc1ccc(OC)cc1)C2	3.981	rising, single point
Cc1nc(C)c(C(=O)NCc2ccc(Cl)cc2)o1	0.01	falling, full curve, poor fit
C[C@@H]1C[C@@H]2[C@H]3CCC4=CC(=O)C=C[C@]4(C)[C@]3(F)[C@@H](O)C[C@@]2(C)[C@@]1(O)C(=O)CO	12.59	falling, single point
O=C(Cn1cnc2ccccc2c1=O)c1ccc2c(c1)OCCO2	12.59	rising, single point
Cc1ccc(NC(=O)c2cccs2)cc1NC(=O)c1ccco1	12.59	falling, single point
COCCOC(=O)C(C#N)c1nc2ccccc2nc1N1CCN(Cc2ccccc2)CC1 (centres undefined)	3.981	rising, partial curve
CN1CCN(c2nc(-c3ccccc3)c3cc(Cl)ccc3n2)CC1	3.162	rising, full curve
Cc1noc(C)c1C(=O)N1CCC2(CCCN(c3ccccc3)C2)CC1	0.3981	falling, full curve
Cc1ccc(Sc2oc(/C=N/n3cnnc3)cc2Br)cc1	1.995	rising, single point
C=CCn1c(=O)c2ccccc2n2c(SCC(=O)/C(C#N)=C(\C)N)nnc12	31.62	falling, single point
Cc1cccc(NCc2ccccc2O)c1C	1	falling, partial curve
O=C(c1ccc(CSCc2ccccc2F)o1)N1CCN(c2ccc(N3CCOCC3)nn2)CC1	12.59	falling, partial curve
COc1ccc(CCNCc2csc3nc4ccccc4n23)cc1OC	1.585	rising, partial curve
Cc1ccc2oc(=O)n(Cc3ccccc3OC(C)C)c2c1	10	falling, partial curve, poor fit
COC(=O)COc1ccc(S(=O)(=O)NCC2CCCO2)cc1Cl (centres undefined)	5.012	rising, full curve
CCOC(=O)CSc1nnc([C@@H](NC(=O)OC(C)(C)C)C(C)C)o1	1.585	rising, partial curve
Cc1cnc(CNc2cc(-c3ccc(C(=O)N(C)C)cc3)ncn2)cn1	25.12	falling, single point
O=S(=O)(NC1CCc2ccccc21)c1ccc(S(=O)(=O)N2CCCC2)cc1 (centres undefined)	3.981	rising, single point
CNC(=O)[C@H]1O[C@H](n2cnc3c(NCc4cccc(I)c4)ncnc32)[C@@H](O)[C@@H]1O	31.62	falling, partial curve
Cc1ccc(-c2nnn(CC(=O)N(Cc3ccccc3)C(C(=O)NC(C)(C)C)c3ccncc3)n2)o1 (centres undefined)	5.012	rising, single point
Cc1cc(C)cc(N(CC(=O)N2CCc3ccccc32)S(=O)(=O)c2c(C)noc2C)c1	1.995	falling, full curve

The first 7 entries again:

* Cc1ccccc1S(=O)(=O)Nc1nc2ccccc2nc1N1CCOCC1 | AC50 0.03162 µM (rising, full curve)
* Cc1ccc(S(=O)(=O)c2nc(-c3ccccc3)oc2NCc2cccnc2)cc1 | AC50 12.59 µM (rising, partial curve)
* Cc1nnc(NCc2ccncc2)c2ccccc12 | AC50 1.995 µM (falling, full curve, poor fit)
* COc1ccc(CCn2c(C)cc3c(c2=O)C(c2ccncc2)C(C#N)=C(N)O3)cc1OC (centres undefined) | AC50 0.01995 µM (rising, full curve, poor fit)
* COc1ccccc1N1CCN(c2ncnc3nc[nH]c23)CC1 | AC50 15.85 µM (falling, partial curve)
* CCC(NC(=O)NCc1cccnc1)(C(F)(F)F)C(F)(F)F | AC50 0.3162 µM (falling, full curve)
* COc1cccc(Cn2c(=O)c(-c3cccs3)nc3cnc(N4CCNCC4)nc32)c1 | AC50 0.3981 µM (rising, full curve)